These are yes or no findings as the source states them, for the method shown. Some entries that bind do so weakly or less than the wild type.
Assays:
Assay in all cases: fluorescence polarisation competition
[1] = biological target: T1, Bcl-XL (UniProt Q07817-1 1-209)
T1 construct: also called anti-apoptotic member of the Bcl-2 protein family

By UniProt entry, the sequences of proteins in these tests, tags left out. Residues count along the entry.
UniProt Q07817, residues 1-209: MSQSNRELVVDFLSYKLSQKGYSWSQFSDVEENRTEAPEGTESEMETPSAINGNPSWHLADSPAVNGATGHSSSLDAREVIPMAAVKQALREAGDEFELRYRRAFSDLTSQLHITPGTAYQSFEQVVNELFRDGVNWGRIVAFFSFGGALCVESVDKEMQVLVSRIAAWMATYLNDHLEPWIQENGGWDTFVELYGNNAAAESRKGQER
UniProt P10415, residues 1-211: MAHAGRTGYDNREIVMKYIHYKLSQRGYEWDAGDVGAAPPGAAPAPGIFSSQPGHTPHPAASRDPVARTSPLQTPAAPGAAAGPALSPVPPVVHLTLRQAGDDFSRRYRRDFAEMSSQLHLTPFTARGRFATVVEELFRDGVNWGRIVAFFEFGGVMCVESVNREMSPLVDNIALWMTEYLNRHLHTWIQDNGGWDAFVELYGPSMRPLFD

[2] = biological target: T2, Bcl-2 (UniProt P10415-1 1-211, limits assumed)
T2 construct: also called anti-apoptotic member of the Bcl-2 protein family

[3] = biological target: T3, Bcl-W (UniProt Q92843-1 1-172, limits assumed)
T3 construct: also called anti-apoptotic member of the Bcl-2 protein family
T3 sequence (looked up): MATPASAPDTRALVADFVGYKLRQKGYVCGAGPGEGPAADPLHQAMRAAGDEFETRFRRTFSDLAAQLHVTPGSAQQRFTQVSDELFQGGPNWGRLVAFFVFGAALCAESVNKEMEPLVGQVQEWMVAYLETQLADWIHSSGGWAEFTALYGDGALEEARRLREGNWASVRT

Measured: binding

GTMENLSRRLKVTGDLFDIMSGQTDV [Beclin peptide, motif GTMENLSRRLKVTGDLFDIMSGQTDV of the Beclin protein]
binds: all assays above

Reference: patent publication US20090099072A1 (LES LABORATOIRES SERVIER, published 2009)
